Measured values from paper PMC12217353.
These are yes or no findings as the source states them, for the method shown. In cells and extracts the contact can be indirect. Some binding calls cover weakened binding; strength is not graded here. For some assays here: Sequences can lack the tags named with a protein. Blank lines part the entries; values can stand above or below the molecule they belong to.

By UniProt entry, the sequences of proteins in these tests, tags left out. Where a name states a change or a piece, a line headed by the entry shows the natural chain unless it says otherwise.
UniProt P13569: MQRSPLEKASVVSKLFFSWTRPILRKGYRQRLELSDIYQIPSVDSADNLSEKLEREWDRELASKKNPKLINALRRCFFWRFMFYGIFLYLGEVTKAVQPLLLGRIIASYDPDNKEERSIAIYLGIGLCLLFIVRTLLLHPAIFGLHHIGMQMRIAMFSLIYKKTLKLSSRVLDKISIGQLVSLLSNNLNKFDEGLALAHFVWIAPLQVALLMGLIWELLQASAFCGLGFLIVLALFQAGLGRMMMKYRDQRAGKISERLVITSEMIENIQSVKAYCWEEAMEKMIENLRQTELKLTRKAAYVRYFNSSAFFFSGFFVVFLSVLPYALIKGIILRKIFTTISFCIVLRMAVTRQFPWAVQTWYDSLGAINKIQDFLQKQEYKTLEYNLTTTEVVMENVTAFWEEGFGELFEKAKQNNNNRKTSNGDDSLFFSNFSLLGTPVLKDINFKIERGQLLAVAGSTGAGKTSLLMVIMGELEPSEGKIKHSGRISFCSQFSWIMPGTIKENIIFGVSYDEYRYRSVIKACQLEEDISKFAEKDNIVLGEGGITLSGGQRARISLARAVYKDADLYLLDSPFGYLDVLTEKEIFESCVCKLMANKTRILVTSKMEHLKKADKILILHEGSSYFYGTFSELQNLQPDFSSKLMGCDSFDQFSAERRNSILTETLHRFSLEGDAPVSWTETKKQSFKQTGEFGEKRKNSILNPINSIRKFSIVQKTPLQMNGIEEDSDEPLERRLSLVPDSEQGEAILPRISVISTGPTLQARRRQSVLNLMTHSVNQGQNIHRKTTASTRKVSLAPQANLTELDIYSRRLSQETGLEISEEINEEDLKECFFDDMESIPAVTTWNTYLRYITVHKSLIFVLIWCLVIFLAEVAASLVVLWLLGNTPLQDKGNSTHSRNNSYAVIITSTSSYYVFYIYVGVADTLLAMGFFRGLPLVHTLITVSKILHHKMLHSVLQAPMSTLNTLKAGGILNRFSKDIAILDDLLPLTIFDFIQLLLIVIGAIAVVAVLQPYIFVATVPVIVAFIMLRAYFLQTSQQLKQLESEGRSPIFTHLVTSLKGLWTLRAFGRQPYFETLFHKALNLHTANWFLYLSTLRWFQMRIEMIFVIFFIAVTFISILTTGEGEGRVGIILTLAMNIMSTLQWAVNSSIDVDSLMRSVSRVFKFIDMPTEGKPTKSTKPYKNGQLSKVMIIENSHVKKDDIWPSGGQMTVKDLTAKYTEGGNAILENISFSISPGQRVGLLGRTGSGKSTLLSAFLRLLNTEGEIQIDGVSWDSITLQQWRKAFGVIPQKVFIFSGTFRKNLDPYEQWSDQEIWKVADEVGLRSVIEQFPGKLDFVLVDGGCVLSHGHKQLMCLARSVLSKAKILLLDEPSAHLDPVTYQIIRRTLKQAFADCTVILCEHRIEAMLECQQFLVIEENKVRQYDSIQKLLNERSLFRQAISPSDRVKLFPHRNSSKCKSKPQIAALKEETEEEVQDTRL
UniProt P24588: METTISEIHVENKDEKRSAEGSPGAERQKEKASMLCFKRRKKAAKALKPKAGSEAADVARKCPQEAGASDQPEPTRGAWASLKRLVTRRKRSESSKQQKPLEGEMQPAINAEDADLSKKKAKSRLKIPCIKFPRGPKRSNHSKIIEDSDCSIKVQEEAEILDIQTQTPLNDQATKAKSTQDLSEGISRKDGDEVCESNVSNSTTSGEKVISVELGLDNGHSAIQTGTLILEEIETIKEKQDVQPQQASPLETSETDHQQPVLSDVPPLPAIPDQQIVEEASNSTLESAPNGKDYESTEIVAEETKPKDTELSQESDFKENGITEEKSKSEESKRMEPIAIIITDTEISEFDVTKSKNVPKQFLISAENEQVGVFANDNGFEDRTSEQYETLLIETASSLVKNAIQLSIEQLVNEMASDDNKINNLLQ

How the values were obtained:
[1] = target: CFTR(K52A/R55A/R59A) (UniProt P13569); experiment: FRET or BRET; live HEK293T cells co-transfected with fluorescent-tagged constructs for 16-18 h; confocal FRET imaging at 37 °C; FRET ratios; some cells stimulated with forskolin/IBMX, co-expressing E-Syt3, ORP5 or ORP8, or depleted of ORP5
[2] = target: CFTR-GFP (UniProt P13569); experiment: as above
[3] = target: CFTR-GFP (UniProt P13569); experiment: condition: only after hydrolysis of PtdSer by PLA1a1-FKBP recruited to FRB with 0.5 µM rapamycin for 8 min; co-IP; lysates of HEK293T cells expressing FRB + PLA1a1-FKBP and treated with 0.5 µM rapamycin for 8 min to hydrolyse plasma membrane PtdSer before lysis; otherwise as the other Co-IP
[4] = target: CFTR-GFP (UniProt P13569); experiment: co-IP; lysates of transfected HEK293T cells (PBS with 1% Triton X-100, phosphatase and protease inhibitors, pH 7.4); antibodies overnight at 4 °C, Sepharose beads for 4 h, three washes, blots; some cells co-expressing E-Syt3 or E3C2C, or depleted of PI(4,5)P2 (FRB + FKBP-5PIPase, 0.5 µM rapamycin for 8 min)
[5] = target: T1, (Δ1-95)NBCe1-B (UniProt Q9Y6R1); experiment: FRET or BRET; live HEK293T cells co-transfected with fluorescent-tagged constructs for 16-18 h; confocal FRET imaging at 37 °C; FRET ratios; some cells stimulated with forskolin/IBMX, co-expressing E-Syt3, ORP5 or ORP8, or depleted of ORP5
T1 sequence: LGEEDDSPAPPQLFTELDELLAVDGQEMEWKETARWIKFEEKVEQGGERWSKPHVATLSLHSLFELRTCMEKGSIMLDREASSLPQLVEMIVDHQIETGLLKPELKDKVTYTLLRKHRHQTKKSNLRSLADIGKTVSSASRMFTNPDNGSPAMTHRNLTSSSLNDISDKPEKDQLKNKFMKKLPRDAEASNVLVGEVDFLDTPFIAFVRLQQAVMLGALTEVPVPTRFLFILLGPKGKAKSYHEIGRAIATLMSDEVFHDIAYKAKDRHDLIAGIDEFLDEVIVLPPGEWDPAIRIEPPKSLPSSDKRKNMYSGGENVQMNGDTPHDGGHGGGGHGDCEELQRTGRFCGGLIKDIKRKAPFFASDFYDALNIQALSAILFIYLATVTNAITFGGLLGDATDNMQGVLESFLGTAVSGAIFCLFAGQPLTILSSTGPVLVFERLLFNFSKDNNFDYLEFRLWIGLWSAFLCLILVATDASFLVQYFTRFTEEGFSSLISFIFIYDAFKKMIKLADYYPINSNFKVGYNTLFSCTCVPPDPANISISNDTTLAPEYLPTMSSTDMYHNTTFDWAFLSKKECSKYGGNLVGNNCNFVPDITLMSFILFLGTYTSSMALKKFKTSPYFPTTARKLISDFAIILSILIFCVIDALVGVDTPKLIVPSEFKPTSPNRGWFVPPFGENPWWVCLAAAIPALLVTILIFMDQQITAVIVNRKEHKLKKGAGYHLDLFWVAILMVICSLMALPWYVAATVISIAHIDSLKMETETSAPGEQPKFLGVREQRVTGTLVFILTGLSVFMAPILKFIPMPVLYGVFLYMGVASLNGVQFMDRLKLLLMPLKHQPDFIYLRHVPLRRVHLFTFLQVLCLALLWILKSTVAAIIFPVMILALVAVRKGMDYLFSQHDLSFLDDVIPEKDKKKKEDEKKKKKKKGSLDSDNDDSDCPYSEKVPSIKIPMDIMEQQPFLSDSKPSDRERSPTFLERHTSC

[6] = target: CFTR-GFP (UniProt P13569); experiment: as above; remark: listed apart in the source
[7] = target: T2, NBCe1-B(R44A) (UniProt Q9Y6R1); experiment: as above
T2 sequence: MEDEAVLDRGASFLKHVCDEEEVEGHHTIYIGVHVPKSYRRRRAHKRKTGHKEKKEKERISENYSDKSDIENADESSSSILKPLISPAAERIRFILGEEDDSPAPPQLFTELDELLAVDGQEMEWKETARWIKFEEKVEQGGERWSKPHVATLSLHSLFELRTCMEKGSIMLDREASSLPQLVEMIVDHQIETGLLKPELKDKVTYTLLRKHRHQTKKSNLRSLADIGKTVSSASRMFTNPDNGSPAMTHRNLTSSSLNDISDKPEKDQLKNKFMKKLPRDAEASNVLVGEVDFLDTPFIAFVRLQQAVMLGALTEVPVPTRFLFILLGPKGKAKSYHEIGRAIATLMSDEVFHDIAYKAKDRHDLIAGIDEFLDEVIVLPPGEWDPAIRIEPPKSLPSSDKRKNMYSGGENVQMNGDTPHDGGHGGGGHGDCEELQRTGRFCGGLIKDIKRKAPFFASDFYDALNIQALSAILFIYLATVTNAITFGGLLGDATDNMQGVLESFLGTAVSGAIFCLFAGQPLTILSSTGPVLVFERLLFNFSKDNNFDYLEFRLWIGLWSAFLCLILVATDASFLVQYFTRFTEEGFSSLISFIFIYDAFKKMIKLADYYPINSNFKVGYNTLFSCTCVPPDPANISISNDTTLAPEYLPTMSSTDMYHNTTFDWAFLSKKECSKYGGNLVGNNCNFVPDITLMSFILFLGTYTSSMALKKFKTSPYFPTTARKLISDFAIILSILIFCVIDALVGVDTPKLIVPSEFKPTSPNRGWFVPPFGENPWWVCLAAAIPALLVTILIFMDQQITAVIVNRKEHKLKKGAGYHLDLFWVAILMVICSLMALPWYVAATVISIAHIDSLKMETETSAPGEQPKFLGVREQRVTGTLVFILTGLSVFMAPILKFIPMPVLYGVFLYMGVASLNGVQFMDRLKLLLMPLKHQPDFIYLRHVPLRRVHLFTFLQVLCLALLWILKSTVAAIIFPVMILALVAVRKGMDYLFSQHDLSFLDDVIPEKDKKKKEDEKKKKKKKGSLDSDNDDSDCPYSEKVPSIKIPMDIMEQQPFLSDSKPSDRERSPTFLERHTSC

[8] = target: T3, NBCe1-B-eGFP (UniProt Q9Y6R1); experiment: as above
T3 sequence: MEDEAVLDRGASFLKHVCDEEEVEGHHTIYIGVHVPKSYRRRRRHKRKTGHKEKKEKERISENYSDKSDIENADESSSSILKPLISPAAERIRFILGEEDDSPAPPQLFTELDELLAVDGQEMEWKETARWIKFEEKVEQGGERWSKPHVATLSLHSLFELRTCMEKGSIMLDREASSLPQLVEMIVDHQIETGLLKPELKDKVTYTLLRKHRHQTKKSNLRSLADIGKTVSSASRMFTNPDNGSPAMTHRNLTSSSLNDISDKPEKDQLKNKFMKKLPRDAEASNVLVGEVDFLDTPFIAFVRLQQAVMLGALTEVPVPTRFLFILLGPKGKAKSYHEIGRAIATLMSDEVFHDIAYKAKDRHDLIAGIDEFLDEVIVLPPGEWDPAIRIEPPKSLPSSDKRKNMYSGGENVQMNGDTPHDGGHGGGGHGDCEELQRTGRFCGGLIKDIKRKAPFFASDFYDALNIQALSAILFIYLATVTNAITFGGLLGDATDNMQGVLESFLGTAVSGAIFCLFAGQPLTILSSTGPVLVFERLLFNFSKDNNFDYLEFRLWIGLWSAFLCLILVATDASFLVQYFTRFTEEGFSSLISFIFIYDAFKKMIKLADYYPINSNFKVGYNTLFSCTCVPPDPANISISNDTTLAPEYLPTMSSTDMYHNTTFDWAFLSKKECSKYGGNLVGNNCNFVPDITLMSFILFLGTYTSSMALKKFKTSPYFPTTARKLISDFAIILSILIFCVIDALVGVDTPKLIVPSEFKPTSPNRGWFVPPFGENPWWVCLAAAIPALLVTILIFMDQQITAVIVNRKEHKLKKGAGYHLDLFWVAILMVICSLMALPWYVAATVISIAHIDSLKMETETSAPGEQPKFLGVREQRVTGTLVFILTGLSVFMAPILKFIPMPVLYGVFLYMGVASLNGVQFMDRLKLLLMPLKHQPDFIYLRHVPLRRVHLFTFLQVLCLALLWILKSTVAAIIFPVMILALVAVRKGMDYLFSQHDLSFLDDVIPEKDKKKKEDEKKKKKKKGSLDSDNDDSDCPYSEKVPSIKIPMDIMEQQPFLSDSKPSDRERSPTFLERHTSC

- binding [1]: binds
- binding [2]: binds
Molecule: AKAP79-mTurqoise2 (from UniProt P24588 1-427)

- binding [3]: no binding
- binding [4]: binds
Molecule: native AKAP79 (from UniProt P24588 1-427)

- binding [5]: binds
- binding [6]: binds
- binding [7]: binds
- binding [8]: binds
B1: E-Syt3-mCherry (protein, UniProt A0FGR9 1-886)
chain: MRAEEPCAPGAPSALGAQRTPGPELRLSSQLLPELCTFVVRVLFYLGPVYLAGYLGLSITWLLLGALLWMWWRRNRRGKLGRLAAAFEFLDNEREFISRELRGQHLPAWIHFPDVERVEWANKIISQTWPYLSMIMESKFREKLEPKIREKSIHLRTFTFTKLYFGQKCPRVNGVKAHTNTCNRRRVTVDLQICYIGDCEISVELQKIQAGVNGIQLQGTLRVILEPLLVDKPFVGAVTVFFLQKPHLQINWTGLTNLLDAPGINDVSDSLLEDLIATHLVLPNRVTVPVKKGLDLTNLRFPLPCGVIRVHLLEAEQLAQKDNFLGLRGKSDPYAKVSIGLQHFRSRTIYRNLNPTWNEVFEFMVYEVPGQDLEVDLYDEDTDRDDFLGSLQICLGDVMTNRVVDEWFVLNDTTSGRLHLRLEWLSLLTDQEVLTEDHGGLSTAILVVFLESACNLPRNPFDYLNGEYRAKKLSRFARNKVSKDPSSYVKLSVGKKTHTSKTCPHNKDPVWSQVFSFFVHNVATERLHLKVLDDDQECALGMLEVPLCQILPYADLTLEQRFQLDHSGLDSLISMRLVLRFLQVEERELGSPYTGPEALKKGPLLIKKVATNQGPKAQPQEEGPTDLPCPPDPASDTKDVSRSTTTTTSATTVATEPTSQETGPEPKGKDSAKRFCEPIGEKKSPATIFLTVPGPHSPGPIKSPRPMKCPASPFAWPPKRLAPSMSSLNSLASSCFDLADISLNIEGGDLRRRQLGEIQLTVRYVCLRRCLSVLINGCRNLTPCTSSGADPYVRVYLLPERKWACRKKTSVKRKTLEPLFDETFEFFVPMEEVKKRSLDVAVKNSRPLGSHRRKELGKVLIDLSKEDLIKGFSQWYELTPNGQPRS
